# Source: article PMC3927958
# Chains of the proteins cited; added tags and fusions are not shown.
# UniProt Q9EQZ6: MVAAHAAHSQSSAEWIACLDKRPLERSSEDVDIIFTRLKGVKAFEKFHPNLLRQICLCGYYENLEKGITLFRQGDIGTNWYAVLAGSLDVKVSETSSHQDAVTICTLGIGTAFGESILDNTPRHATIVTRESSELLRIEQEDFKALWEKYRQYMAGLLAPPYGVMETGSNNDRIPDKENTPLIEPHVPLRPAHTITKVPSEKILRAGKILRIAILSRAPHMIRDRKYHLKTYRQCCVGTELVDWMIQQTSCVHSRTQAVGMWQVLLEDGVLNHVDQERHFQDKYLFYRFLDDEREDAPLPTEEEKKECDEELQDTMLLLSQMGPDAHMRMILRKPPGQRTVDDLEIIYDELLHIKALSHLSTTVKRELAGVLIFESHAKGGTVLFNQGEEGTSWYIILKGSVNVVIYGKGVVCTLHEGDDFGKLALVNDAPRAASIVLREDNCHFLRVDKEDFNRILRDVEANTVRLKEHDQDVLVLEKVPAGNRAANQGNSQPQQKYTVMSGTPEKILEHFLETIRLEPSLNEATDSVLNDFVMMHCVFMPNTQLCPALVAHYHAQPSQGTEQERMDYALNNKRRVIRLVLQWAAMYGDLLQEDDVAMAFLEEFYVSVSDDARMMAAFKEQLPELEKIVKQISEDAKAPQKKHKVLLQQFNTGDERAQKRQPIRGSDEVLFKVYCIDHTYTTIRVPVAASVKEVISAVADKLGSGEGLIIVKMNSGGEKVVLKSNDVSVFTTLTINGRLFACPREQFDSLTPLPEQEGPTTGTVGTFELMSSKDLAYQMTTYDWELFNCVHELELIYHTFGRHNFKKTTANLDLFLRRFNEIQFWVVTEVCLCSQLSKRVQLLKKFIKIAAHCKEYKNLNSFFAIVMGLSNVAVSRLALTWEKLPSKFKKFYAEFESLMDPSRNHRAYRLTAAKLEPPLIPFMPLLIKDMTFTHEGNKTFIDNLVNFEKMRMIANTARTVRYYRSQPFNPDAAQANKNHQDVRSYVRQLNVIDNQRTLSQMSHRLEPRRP
# UniProt Q8VCC8: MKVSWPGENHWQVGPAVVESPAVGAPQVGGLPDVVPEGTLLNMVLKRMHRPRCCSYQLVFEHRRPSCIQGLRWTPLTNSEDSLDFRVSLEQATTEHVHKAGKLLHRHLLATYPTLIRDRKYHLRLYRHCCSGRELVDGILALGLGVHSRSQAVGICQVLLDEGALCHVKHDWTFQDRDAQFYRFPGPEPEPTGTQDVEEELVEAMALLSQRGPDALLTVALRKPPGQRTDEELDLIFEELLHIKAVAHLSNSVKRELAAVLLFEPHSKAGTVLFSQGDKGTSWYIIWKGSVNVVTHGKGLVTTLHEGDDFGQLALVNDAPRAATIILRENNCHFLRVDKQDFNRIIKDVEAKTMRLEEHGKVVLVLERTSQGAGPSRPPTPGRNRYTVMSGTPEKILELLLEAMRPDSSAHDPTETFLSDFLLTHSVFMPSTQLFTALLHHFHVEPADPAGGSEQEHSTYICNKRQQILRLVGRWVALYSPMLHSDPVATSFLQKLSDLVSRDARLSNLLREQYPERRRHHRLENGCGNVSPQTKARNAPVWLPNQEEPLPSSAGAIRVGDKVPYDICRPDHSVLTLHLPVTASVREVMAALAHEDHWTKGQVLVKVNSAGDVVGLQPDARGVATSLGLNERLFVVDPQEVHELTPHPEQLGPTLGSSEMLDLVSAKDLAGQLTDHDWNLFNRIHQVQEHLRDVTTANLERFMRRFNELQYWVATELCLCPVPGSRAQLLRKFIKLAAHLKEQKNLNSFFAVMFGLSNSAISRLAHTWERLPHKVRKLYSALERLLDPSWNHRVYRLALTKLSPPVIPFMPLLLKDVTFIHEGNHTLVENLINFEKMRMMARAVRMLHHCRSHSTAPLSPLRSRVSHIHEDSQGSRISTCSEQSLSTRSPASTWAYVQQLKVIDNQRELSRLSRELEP
# UniProt Q9QZQ1: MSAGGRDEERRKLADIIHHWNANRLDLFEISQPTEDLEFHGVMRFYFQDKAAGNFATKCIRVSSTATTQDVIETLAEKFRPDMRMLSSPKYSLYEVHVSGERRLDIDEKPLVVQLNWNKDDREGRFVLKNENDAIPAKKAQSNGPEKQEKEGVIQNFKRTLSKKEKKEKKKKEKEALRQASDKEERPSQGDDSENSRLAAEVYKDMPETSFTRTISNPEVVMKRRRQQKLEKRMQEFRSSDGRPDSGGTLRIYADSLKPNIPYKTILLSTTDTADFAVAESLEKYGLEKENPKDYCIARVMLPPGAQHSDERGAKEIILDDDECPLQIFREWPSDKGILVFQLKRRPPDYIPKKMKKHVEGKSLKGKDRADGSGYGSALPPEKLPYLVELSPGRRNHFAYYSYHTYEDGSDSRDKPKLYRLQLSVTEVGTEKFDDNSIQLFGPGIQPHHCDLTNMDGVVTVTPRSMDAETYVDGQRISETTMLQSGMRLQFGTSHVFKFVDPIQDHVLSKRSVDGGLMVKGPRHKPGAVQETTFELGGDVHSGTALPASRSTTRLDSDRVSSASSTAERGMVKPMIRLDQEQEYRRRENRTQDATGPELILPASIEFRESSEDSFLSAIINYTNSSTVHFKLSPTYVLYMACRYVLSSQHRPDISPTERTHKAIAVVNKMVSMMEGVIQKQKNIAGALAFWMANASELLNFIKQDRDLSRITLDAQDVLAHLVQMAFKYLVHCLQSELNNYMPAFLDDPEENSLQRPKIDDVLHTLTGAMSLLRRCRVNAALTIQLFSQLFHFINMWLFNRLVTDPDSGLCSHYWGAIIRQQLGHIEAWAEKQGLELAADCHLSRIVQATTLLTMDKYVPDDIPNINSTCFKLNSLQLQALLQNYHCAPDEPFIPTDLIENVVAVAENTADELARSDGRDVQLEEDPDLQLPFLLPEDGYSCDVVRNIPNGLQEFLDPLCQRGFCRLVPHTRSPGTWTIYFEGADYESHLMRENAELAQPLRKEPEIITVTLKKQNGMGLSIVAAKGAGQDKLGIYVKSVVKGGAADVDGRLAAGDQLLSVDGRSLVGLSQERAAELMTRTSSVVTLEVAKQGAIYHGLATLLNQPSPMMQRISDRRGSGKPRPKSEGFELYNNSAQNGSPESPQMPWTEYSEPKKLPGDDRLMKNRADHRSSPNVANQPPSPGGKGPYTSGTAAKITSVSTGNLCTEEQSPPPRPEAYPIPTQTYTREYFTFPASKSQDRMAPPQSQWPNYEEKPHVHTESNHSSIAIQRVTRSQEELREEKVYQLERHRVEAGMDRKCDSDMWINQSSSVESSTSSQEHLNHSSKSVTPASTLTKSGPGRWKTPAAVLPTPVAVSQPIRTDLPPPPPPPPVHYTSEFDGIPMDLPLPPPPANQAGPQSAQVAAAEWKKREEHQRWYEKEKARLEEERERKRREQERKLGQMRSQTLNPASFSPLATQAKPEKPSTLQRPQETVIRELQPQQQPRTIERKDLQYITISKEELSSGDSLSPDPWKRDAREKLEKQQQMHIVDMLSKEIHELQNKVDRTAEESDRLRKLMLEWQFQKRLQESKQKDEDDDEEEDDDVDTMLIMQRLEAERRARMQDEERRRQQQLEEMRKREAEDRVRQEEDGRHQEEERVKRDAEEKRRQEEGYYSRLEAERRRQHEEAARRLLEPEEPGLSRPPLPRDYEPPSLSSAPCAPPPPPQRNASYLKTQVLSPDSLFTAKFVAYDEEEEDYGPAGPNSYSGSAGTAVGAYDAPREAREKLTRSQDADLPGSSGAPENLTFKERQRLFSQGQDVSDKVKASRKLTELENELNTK
# These are yes or no findings as the source states them, for the method shown. Binding seen in cells or lysates may run through a third protein. Some results given as binding are weak or reduced against the parent protein; the word gives no strength.
# Biological target: T1, junctional adhesion molecule-A (mouse (endogenous in lung endothelial cells)) (UniProt O88792)
# T1 sequence: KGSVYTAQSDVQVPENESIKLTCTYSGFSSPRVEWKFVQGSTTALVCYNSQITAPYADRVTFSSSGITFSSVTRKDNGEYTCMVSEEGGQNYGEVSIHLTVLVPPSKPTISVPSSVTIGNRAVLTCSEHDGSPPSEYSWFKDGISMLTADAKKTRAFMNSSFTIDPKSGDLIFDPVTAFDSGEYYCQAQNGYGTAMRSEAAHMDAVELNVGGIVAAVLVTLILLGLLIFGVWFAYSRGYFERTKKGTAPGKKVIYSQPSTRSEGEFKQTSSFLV
# Test: co-IP; confluent murine JAM-A-WT endothelial cells incubated with dithiobis-(succinimidyl) propionate (cross-linker) 30 min at 37°C, lysed in RIPA buffer; JAM-A or EPAC-2 immunoprecipitated overnight from 8 mg total extract, IgG as control; immunoblotting
row,binding,Substance
1,binds,EPAC-2 (from UniProt Q9EQZ6 1-1011)
2,binds,EPAC-1 (from UniProt Q8VCC8 1-918)
3,binds,afadin (from UniProt Q9QZQ1 1-1820)
